Some of the results follow.

Sequences of proteins named here, by UniProt entry; tags and fusion partners are left off. A change or cut given only in a name is not applied to a line headed by its entry.
UniProt O94806: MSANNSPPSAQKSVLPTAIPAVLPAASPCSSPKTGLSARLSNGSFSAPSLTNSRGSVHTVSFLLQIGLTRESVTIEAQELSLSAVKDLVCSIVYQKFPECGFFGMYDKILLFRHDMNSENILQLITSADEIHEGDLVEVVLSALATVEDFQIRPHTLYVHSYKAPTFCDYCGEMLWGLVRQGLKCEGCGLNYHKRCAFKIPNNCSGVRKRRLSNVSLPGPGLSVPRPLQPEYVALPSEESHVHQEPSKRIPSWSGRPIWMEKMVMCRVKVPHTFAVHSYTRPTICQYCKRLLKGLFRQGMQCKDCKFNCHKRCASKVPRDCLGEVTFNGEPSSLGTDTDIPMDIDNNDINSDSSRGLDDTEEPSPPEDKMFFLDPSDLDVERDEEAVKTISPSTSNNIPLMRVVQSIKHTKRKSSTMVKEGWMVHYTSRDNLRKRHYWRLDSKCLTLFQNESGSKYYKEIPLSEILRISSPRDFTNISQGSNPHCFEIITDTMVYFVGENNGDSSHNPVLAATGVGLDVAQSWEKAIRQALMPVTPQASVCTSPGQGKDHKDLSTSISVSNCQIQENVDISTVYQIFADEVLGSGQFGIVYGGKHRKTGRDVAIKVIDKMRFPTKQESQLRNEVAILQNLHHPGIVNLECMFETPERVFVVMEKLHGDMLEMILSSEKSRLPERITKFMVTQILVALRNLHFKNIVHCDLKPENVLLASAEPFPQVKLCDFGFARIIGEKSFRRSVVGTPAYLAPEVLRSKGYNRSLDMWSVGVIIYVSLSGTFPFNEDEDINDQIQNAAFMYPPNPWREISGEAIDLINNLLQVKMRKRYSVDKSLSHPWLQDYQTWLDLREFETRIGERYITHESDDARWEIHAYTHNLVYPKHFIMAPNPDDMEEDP
UniProt O95685: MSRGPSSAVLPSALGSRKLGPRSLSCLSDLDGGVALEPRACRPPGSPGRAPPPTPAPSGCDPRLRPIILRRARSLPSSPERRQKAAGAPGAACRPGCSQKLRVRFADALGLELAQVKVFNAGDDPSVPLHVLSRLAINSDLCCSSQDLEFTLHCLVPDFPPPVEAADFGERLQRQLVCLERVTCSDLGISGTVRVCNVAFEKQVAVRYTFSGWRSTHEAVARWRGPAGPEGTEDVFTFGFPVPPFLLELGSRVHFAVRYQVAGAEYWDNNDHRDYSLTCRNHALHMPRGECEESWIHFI
UniProt Q9Y255: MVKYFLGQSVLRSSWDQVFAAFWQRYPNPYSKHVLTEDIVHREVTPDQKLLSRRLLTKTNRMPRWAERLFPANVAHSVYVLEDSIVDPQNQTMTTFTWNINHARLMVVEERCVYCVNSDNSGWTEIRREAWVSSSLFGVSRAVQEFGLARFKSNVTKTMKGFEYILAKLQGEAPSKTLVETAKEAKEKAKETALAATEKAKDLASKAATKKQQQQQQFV
UniProt P78527, whole entry, looked up: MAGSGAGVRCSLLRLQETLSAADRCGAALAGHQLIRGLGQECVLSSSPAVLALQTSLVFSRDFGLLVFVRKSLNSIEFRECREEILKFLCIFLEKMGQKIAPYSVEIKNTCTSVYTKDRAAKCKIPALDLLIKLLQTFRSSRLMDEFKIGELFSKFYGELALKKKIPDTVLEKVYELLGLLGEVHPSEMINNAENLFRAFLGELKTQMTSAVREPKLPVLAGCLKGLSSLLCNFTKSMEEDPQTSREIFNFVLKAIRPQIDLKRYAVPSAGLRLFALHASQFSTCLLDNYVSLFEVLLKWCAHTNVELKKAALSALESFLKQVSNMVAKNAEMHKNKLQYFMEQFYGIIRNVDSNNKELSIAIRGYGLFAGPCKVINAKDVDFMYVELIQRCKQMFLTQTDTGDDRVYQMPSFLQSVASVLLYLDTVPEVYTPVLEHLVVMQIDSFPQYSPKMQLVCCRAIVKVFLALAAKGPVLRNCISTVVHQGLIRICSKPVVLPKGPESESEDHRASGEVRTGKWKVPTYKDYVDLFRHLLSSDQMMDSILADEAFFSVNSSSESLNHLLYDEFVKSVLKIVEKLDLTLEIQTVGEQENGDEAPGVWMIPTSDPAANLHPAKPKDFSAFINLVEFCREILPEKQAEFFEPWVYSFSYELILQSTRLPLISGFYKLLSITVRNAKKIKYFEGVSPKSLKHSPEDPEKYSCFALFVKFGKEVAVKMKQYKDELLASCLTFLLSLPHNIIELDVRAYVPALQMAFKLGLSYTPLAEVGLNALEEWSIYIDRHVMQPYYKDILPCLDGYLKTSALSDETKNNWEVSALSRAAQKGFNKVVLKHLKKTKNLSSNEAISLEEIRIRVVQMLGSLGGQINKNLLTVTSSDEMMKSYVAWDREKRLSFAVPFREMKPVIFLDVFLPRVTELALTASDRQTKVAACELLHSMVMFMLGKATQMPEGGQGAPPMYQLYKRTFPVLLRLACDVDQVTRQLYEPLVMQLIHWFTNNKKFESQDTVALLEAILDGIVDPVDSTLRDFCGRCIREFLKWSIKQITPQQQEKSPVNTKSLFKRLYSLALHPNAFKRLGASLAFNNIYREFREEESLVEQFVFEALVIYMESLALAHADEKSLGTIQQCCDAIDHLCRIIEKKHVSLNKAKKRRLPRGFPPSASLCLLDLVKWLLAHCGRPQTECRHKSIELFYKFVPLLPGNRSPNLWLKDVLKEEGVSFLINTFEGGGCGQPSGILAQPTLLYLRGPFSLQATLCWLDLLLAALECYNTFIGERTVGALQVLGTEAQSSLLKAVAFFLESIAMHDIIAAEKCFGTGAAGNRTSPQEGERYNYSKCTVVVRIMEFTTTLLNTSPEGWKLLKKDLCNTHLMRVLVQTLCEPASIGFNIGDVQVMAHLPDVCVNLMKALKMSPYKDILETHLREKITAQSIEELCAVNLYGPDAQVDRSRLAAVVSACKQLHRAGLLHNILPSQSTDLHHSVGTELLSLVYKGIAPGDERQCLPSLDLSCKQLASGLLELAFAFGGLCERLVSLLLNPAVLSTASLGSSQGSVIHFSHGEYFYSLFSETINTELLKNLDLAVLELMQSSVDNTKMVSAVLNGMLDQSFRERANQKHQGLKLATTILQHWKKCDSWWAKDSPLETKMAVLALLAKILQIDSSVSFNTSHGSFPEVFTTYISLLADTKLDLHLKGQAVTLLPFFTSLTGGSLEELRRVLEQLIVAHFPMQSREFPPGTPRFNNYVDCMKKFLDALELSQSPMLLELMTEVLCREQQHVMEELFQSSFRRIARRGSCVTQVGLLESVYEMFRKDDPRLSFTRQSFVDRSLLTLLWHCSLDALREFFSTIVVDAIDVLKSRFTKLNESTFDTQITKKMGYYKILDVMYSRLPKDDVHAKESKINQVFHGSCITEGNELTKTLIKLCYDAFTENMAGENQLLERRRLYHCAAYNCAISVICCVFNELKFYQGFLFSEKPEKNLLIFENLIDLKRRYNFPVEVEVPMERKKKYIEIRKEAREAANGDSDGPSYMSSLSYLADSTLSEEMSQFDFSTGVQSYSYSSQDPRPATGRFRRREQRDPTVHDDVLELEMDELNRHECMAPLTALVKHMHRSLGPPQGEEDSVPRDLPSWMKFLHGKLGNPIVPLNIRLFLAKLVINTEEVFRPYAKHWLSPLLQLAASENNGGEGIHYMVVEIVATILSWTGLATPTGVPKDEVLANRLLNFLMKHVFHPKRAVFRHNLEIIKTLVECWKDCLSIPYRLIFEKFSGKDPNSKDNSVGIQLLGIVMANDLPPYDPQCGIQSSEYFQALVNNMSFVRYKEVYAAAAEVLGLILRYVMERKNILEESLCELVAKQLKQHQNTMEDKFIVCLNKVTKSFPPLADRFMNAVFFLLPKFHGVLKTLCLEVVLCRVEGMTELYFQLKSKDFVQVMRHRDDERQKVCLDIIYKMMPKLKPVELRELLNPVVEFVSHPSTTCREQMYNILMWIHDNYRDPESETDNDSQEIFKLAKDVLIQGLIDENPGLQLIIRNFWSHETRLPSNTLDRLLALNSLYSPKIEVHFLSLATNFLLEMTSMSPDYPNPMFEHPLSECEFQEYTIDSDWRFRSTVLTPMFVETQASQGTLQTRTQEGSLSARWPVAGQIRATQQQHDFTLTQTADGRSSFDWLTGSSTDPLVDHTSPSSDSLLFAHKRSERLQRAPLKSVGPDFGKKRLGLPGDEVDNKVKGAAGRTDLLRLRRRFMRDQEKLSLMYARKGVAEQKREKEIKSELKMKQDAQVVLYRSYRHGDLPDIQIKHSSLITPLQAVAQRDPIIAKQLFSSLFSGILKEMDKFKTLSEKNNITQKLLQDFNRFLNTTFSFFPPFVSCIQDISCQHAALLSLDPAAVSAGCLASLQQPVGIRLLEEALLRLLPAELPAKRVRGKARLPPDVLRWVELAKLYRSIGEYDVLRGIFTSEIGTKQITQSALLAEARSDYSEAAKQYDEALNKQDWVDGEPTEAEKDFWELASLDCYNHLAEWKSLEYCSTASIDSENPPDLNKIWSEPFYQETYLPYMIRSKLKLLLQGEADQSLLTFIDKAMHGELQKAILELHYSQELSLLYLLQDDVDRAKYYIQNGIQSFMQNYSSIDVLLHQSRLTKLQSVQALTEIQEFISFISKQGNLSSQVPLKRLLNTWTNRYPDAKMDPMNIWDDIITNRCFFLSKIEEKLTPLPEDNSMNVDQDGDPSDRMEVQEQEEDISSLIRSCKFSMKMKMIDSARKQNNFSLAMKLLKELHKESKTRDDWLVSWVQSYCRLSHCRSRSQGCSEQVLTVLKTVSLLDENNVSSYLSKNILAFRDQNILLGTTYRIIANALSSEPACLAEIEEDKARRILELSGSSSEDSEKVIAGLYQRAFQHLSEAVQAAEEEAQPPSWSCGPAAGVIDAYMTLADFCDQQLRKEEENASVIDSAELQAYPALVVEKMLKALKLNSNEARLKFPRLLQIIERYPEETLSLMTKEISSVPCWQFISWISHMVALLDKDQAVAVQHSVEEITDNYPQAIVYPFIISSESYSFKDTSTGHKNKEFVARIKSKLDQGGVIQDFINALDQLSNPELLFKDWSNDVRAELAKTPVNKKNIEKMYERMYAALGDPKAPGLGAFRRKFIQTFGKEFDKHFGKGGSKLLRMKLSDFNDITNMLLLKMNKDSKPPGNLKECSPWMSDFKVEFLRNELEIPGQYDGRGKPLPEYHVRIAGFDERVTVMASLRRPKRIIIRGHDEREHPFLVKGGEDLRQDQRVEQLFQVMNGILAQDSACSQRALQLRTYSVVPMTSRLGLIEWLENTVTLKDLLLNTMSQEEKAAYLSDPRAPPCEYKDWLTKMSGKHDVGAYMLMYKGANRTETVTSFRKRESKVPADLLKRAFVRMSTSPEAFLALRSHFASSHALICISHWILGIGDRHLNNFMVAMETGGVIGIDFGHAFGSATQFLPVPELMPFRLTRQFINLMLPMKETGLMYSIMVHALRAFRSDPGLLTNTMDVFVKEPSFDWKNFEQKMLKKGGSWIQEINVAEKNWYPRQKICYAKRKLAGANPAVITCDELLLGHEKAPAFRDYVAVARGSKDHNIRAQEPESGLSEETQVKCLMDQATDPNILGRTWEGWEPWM
UniProt Q8WUF5: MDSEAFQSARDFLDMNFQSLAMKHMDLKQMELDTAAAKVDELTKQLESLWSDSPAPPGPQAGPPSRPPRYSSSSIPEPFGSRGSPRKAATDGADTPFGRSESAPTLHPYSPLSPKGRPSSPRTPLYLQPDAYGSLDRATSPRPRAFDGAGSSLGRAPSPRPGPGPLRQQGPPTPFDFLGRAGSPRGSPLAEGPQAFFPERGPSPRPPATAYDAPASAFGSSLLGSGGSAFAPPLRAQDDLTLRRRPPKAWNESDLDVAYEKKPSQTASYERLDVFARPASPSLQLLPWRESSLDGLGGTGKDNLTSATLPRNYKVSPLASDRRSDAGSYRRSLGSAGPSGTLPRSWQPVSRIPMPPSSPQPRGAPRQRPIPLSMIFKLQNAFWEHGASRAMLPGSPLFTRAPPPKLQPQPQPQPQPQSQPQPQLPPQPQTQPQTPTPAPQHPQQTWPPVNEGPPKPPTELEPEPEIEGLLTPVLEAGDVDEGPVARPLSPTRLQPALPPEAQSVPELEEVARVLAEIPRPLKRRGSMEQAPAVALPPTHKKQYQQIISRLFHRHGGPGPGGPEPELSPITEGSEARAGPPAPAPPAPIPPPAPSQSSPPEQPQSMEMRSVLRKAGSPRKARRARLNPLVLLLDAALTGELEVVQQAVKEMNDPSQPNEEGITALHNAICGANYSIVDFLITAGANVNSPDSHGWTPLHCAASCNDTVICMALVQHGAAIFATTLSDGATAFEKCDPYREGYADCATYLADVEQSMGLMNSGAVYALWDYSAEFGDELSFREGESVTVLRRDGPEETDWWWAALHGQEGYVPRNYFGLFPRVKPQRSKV
UniProt P13727: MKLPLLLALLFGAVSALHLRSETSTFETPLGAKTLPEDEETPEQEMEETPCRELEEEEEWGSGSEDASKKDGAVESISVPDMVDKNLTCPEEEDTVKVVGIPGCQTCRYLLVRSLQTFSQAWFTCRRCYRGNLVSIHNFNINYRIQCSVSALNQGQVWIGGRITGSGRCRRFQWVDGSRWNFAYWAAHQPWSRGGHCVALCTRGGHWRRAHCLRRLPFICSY

Compound in one assay: Cn1cncc1[C@@](N)(c1ccc(Cl)cc1)c1ccc2c(c1)c(-c1cccc(Cl)c1)cc(=O)n2C [tipifarnib]
Briefly: log2 fold change, soluble protein after heating vs DMSO (PISA); higher = thermal stabilisation; K562 lysate, 10 uM; active = over 0.2 and 3.5 SD of the protein, either way, in both replicates (recomputed). The essentials:
(§1)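 Soluble protein was defined as the supernatant remaining after 21,000xg for 90 min, following pooling of heated aliquots and adjustment to 0.5% NP-40 at 4°C. Before that, crude K562 extract at 1 mg/mL protein in PBS pH 7.4 with 1 mM MgCl2 was treated with 10 μM compound for 30 min and heated for 3 min across 48°C-58°C. Quantification used TMTpro 16plex LC-MS/MS with channel sums equalised, and values are log-two fold changes in thermal stability relative to solvent controls from duplicates.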
As to PRKD3 (UniProt O94806), the log2 fold change was inactive: 0.087.
Still for that read-out and setting: with PPM1B isoform 2 (UniProt O75688) the figure was inactive: -0.04; with PPP1R3D (UniProt O95685), inactive: 0.006; with PPT2, A0A140T9Y1, inactive: 0.1.
Still for that read-out and setting: with PRELID1 (UniProt Q9Y255) the figure was inactive: 0.006; with PRKDC (UniProt P78527), inactive: -0.011.
The same measure, in the same setting: with PPP2CA (UniProt E7ESG8) the figure was inactive: 0.356; with PRKX (UniProt P51817), inactive: -0.014.
Take PPP6R3 isoform 2 (UniProt Q5H9R7): the log2 fold change was inactive: -0.05.
Still for that read-out and setting: the result for PPP1R13L (UniProt Q8WUF5) reads inactive: 0.245.

Compound in another assay: NC(=O)Nc1cc(-c2cccc(F)c2)sc1C(=O)N[C@H]1CCCNC1
Described as above. The essentials: as §1
As to PRKD3 (UniProt O94806), the log2 fold change is inactive: -0.174.
Same read-out and setting: the result for PPP1R12B isoform 6 (UniProt O60237) reads inactive: 0.006; that for PPP1R3D (UniProt O95685), inactive: -0.008.
Consider PPP1R12C isoform 3 (UniProt Q9BZL4), for which the log2 fold change was inactive: 0.08.
Take PRG2 (UniProt P13727): the log2 fold change is inactive: 0.057.
On to PROSER3 (UniProt Q2NL68), for which the log2 fold change was inactive: 0.068.
Same read-out and setting: the result for PRPF40B (UniProt Q6NWY9) reads inactive: 0.014; that for PPP2R3B (UniProt Q9Y5P8), inactive: 0.003.
Still for that read-out and setting: with PRELID1 (UniProt Q9Y255) the figure was inactive: 0.037.
As for PRKDC (UniProt P78527), the log2 fold change was inactive: 0.004.
The same measure, in the same setting: with PPP1R13L (UniProt Q8WUF5) the figure was inactive: 0.036; with PROSER3, A0A2R8Y8D9, inactive: 0.084; with PPP2R5B (UniProt Q15173), inactive: -0.025.
Still for that read-out and setting: with PPM1H (UniProt Q9ULR3) the figure was inactive: -0.041.

Compound in another assay: NC(=O)c1cnc(N[C@@H]2CCCC[C@@H]2N)nc1Nc1cccc(-n2nccn2)c1
Described as above. In outline: as §1
Turning to PRKD3 (UniProt O94806), the log2 fold change is inactive: 0.001.
Still for that read-out and setting: the result for PPM1B isoform 2 (UniProt O75688) reads inactive: 0.078; that for PPP1R12B isoform 6 (UniProt O60237), inactive: 0.05; that for PPP1R3D (UniProt O95685), inactive: -0.005.
The same measure, in the same setting: with PPP1R7 isoform 2 (UniProt Q15435) the figure was inactive: 0.109; with PPP1R16A (UniProt Q96I34), inactive: -0.204; with PRG2 (UniProt P13727), inactive: 0.038.
Turning to PREP (UniProt H0Y5Y0), the log2 fold change is inactive: -0.087.
Same read-out and setting: the result for PRMT2 (UniProt P55345) reads inactive: 0.068.
The same measure, in the same setting: the result for PPM1J (UniProt Q5JR12) reads inactive: 0.144; that for PPP2R3B (UniProt Q9Y5P8), inactive: -0.054.
As for PRKDC (UniProt P78527), the log2 fold change is inactive: 0.123.
Same read-out and setting: with PRDM2 (UniProt Q13029) the figure was inactive: -0.001; with PRKX (UniProt P51817), inactive: 0.129.
Still for that read-out and setting: the result for PPME1 (UniProt Q9Y570) reads inactive: 0.048; that for PPIP5K2 (UniProt H0Y9S9), inactive: 0.142; that for PPP1R7 (UniProt C9JD73), inactive: -0.17.
On to PPP1R13L (UniProt Q8WUF5), for which the log2 fold change was inactive: -0.004.
Same read-out and setting: the result for PPP1R14A, A0A0B4J2A3 reads inactive: 0.064.
Same read-out and setting: with PRPF40A isoform 3 (UniProt O75400) the figure was inactive: -0.105; with PRDM10 isoform 6 (UniProt Q9NQV6), inactive: 0.118; with PPP2R5B (UniProt Q15173), inactive: 0.011.
In the case of PPM1H (UniProt Q9ULR3), the log2 fold change is inactive: 0.
